Experimental data taken from publication PMC4357451.
These are yes or no findings as the source states them, for the method shown. Binding seen in cells or lysates may run through a third protein. Some binding calls cover weakened binding; strength is not graded here. Sequences can lack the tags named with a protein.

Sequences of proteins named here, by UniProt entry; tags and fusion partners are left off.
UniProt F1LTE0: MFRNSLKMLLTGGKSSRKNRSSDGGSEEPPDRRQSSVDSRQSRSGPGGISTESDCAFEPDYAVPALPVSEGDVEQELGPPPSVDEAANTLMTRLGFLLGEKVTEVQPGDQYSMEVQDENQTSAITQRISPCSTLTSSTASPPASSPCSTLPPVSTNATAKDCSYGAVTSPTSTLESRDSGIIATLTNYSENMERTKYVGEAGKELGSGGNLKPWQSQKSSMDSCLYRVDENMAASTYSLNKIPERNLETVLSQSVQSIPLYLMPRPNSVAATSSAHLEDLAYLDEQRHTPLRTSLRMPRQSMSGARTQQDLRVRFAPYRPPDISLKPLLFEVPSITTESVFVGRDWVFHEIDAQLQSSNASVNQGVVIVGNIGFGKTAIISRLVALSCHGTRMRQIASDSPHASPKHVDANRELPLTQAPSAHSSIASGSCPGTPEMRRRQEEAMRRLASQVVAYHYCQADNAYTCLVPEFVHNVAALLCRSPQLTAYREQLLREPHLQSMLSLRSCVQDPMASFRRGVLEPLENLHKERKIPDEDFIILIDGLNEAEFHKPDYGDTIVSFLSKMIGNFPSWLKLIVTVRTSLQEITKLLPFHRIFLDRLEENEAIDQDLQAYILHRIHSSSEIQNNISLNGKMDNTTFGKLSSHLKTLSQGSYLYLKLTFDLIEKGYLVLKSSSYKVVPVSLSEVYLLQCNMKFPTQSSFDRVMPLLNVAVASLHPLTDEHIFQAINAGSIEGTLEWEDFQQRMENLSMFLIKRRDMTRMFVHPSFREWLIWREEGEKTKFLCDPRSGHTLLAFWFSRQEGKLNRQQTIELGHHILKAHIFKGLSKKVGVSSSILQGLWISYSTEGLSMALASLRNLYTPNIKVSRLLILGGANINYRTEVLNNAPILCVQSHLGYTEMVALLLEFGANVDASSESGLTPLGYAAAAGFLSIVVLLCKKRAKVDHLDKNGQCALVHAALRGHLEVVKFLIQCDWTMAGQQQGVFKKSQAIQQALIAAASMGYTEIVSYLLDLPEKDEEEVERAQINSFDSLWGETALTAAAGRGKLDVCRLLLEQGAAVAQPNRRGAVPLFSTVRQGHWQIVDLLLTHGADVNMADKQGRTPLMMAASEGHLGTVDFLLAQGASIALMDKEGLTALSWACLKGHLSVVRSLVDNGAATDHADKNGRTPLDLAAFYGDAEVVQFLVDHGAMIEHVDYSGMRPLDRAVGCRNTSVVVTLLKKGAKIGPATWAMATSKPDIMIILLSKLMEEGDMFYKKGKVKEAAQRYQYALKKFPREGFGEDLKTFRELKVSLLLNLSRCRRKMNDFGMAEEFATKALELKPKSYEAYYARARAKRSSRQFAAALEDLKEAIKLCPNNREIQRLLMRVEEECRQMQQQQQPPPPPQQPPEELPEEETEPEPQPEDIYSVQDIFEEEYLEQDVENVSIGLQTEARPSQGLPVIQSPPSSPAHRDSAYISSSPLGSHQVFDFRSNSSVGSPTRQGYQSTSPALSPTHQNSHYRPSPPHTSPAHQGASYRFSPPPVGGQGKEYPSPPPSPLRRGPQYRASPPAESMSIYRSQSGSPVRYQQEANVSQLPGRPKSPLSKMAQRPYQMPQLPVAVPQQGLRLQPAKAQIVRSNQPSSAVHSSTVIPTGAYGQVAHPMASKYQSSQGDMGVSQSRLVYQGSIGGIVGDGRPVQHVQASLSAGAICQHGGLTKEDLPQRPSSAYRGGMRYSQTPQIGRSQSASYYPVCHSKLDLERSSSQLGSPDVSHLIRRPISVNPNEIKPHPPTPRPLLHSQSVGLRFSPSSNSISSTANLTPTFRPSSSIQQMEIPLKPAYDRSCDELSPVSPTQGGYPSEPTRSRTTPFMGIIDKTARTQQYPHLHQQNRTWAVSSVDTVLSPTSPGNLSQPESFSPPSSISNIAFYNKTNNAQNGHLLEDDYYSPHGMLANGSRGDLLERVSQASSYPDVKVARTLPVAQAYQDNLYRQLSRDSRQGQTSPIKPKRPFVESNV

T1: GFP-PRICKLE1 (human) (UniProt Q96MT3)
T1 sequence: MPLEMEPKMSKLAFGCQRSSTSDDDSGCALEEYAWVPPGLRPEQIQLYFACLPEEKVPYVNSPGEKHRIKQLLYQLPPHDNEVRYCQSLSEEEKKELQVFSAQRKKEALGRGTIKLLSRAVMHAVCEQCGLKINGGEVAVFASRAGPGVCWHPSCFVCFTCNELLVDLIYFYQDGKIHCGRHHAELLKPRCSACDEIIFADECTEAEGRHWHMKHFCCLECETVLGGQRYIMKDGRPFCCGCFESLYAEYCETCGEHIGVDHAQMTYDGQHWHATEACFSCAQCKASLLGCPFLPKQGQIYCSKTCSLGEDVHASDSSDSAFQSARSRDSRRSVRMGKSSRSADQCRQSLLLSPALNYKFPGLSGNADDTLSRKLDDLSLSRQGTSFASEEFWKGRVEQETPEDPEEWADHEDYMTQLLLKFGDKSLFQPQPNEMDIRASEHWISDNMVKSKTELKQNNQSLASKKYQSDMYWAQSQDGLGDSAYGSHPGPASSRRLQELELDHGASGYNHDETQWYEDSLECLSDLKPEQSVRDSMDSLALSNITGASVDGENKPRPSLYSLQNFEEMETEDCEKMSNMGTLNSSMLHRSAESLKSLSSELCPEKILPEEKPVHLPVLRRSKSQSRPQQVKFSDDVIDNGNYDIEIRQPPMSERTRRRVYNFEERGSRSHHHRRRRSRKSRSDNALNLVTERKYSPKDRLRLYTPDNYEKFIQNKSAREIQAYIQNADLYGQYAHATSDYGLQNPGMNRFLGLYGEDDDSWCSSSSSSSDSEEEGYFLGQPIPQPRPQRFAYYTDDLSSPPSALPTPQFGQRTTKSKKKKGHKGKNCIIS

T2: GFP-PRICKLE2 (human) (UniProt Q7Z3G6)
T2 sequence: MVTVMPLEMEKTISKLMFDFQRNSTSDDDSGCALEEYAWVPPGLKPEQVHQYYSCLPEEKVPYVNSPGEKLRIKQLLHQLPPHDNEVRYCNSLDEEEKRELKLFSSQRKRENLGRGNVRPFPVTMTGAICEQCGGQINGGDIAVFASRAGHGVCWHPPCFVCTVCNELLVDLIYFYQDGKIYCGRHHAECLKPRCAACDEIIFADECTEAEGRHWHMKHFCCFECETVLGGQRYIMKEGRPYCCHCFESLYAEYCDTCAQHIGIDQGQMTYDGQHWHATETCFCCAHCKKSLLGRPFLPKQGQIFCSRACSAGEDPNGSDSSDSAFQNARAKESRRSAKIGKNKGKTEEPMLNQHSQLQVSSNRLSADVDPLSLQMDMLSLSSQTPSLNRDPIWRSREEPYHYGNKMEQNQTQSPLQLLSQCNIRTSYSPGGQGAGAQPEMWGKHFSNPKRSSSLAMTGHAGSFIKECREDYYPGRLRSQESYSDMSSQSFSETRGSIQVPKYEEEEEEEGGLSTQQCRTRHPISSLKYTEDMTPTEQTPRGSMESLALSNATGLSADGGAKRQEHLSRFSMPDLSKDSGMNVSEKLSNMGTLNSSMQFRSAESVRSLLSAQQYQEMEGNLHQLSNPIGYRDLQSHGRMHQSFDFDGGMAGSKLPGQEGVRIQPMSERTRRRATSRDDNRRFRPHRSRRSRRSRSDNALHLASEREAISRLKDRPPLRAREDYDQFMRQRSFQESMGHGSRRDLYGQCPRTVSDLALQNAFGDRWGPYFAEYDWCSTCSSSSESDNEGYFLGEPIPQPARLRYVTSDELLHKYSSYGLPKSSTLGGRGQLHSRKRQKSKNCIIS

T3: C2Usp9x (carboxy terminal amino acids 2102-2560 of murine Usp9x) (mouse) (UniProt P70398)
T3 sequence: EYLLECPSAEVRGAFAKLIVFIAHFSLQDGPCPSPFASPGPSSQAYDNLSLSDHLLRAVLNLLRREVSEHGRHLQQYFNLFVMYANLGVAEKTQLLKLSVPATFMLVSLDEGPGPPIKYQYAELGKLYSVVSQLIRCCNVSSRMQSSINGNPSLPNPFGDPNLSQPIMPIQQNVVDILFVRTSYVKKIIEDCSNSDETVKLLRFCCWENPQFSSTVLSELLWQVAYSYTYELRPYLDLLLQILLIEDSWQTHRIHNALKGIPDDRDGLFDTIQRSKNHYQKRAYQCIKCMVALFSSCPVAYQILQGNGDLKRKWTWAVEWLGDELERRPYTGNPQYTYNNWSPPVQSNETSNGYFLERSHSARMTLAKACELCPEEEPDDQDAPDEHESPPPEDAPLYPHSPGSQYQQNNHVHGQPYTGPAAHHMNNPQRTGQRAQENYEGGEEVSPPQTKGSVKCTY


Assays:
[1] = molecular target: T1, GFP-PRICKLE1 (human); assay: co-IP; GFP immunoprecipitates from differentiated PC12 lines expressing GFP, GFP-PRICKLE1 or GFP-PRICKLE2, immunoblotted with anti-BCR, anti-TANC2 and anti-USP9X for the endogenous proteins
[2] = molecular target: T2, GFP-PRICKLE2 (human); assay: as above
[3] = molecular target: T3, C2Usp9x (carboxy terminal amino acids 2102-2560 of murine Usp9x) (mouse); assay: co-IP; HEK293T co-expressing a PRICKLE1 or PRICKLE2 c-terminal fragment with a Usp9x deletion fragment (C1 or C2); complexes immunoprecipitated via the Flag tag

Molecule | binding [1] | binding [2] | binding [3]
Bcr, endogenous in PC12 cells (protein, UniProt F1LXF1 1-1270) MVDSVGFAEAWRAQFPDSEPPRMELRSVGDIEQELERCKASIRRLEQEVNQERFRMIYLQTLLAKEKKSYDRQRWGFRRAAQPPDGAAEPRASAPRLPPAPADGADPAPVEESEARPDGEGSPSKGRPATARRPAAAAPADRDDRGPPTSVAALRSNFEKIRKGPAQPGSADAEKPFYVNVEFHHERGLVKVNDKEVSDRISSLGSQAMQMERKKSQQSAGQGLGEAPRPHYRGRSSESSCGLDGDYEDAELNPRFLKDNLINANGGNRPPWPPLEYQPYQSIYVGGMMVEGEGKSPLLRSQSTSEQEKRLTWPRRSYSPRSFEDSGGGYTPDCSSNENLTSSEEDFSSGQSSRVSPSPTTYRMFRDKSRSPSQNSQQSFDSSSPPTPQCQKRHRQCQVVVSEATIVGVRKTGQIWPSDGDSTFQGEADSSFGTPPGYGCAADQAEEQRRHQDGLPYIDDSPSSSPHLSSKGRGSPASGALEPTKASELDLEKGLEMRKWVLSGILASEETYLSHLEALLLPMKPLKAAATTSQPVLTSQQIETIFFKVPELYEIHKEFYDGLFPRVQQWSHQQRVGDLFQKLASQLGVYRAFVDNYGVAMETAEKCCQANAQFAEISENLRARSNKDVKDSTTKNSLETLLYKPVDRVTRSTLVLHDLLKHTPSSHPDHSLLQDALRISQNFLSSINEEITPRRQSMTVKKGEHRQLLKDSFMVELVEGARKLRHIFLFTDLLLCTKLKKQSGGKTQQYDCKWYIPLTDLSFQMVDELEALPNIPLVPDEELDALKIKISQIKSDIQREKRANKGSKVMERLRKKLSEQESLLLLMSPSMAFRVHSRNGKSYTFLISSDYERAEWRESIREQQKKCFKSFSLTSVELQMLTNSCVKLQTVHHIPLTINKEDDESPGLYGFLHAIVHSATGFKQSSNLYCTLEVDSFGYFVNKAKTRVYRDTTEPNWNEEFEIELEGSQTLRILCYEKCYNKMKMAKEDGESADKLMGKGQVQLDPQTLQDRDWQRTVIDMNGIEVKLSVKFTSREFSLKRMPSRKQTGVFGVKIAVVTKRERSKVPYIVRQCVEEIERRGMEEVGIYRVSGVATDIQALKAAFDVNNKDVSVMMSEMDVNAIAGTLKLYFRELPEPLFTDEFYPNFAEGIALSDPVAKESCMLNLLLSLPEANLLTFLFLLDHLKRVAEKETVNKMSLHNLATVFGPTLLRPSEKESKLPANPSQPITMTDSWSLEVMSQVQVLLYFLQLEAIPAPDSKRQSILFSTEV | binds | binds | –
Flag-CPRICKLE1 (C-terminus of PRICKLE1, aa 314 to 831) (domain or fragment, UniProt Q96MT3 314-831) ASDSSDSAFQSARSRDSRRSVRMGKSSRSADQCRQSLLLSPALNYKFPGLSGNADDTLSRKLDDLSLSRQGTSFASEEFWKGRVEQETPEDPEEWADHEDYMTQLLLKFGDKSLFQPQPNEMDIRASEHWISDNMVKSKTELKQNNQSLASKKYQSDMYWAQSQDGLGDSAYGSHPGPASSRRLQELELDHGASGYNHDETQWYEDSLECLSDLKPEQSVRDSMDSLALSNITGASVDGENKPRPSLYSLQNFEEMETEDCEKMSNMGTLNSSMLHRSAESLKSLSSELCPEKILPEEKPVHLPVLRRSKSQSRPQQVKFSDDVIDNGNYDIEIRQPPMSERTRRRVYNFEERGSRSHHHRRRRSRKSRSDNALNLVTERKYSPKDRLRLYTPDNYEKFIQNKSAREIQAYIQNADLYGQYAHATSDYGLQNPGMNRFLGLYGEDDDSWCSSSSSSSDSEEEGYFLGQPIPQPRPQRFAYYTDDLSSPPSALPTPQFGQRTTKSKKKKGHKGKNCIIS | – | – | binds

The remaining lines, values ahead:

binding [1] | binding [2] | binding [3] | Molecule
binds | binds | – | Tanc2, endogenous in PC12 cells (from UniProt F1LTE0 1-1992)
– | – | binds | Flag-CPRICKLE2 (C-terminus of PRICKLE2, aa 318 to 844) (domain or fragment, UniProt Q7Z3G6 318-844) GSDSSDSAFQNARAKESRRSAKIGKNKGKTEEPMLNQHSQLQVSSNRLSADVDPLSLQMDMLSLSSQTPSLNRDPIWRSREEPYHYGNKMEQNQTQSPLQLLSQCNIRTSYSPGGQGAGAQPEMWGKHFSNPKRSSSLAMTGHAGSFIKECREDYYPGRLRSQESYSDMSSQSFSETRGSIQVPKYEEEEEEEGGLSTQQCRTRHPISSLKYTEDMTPTEQTPRGSMESLALSNATGLSADGGAKRQEHLSRFSMPDLSKDSGMNVSEKLSNMGTLNSSMQFRSAESVRSLLSAQQYQEMEGNLHQLSNPIGYRDLQSHGRMHQSFDFDGGMAGSKLPGQEGVRIQPMSERTRRRATSRDDNRRFRPHRSRRSRRSRSDNALHLASEREAISRLKDRPPLRAREDYDQFMRQRSFQESMGHGSRRDLYGQCPRTVSDLALQNAFGDRWGPYFAEYDWCSTCSSSSESDNEGYFLGEPIPQPARLRYVTSDELLHKYSSYGLPKSSTLGGRGQLHSRKRQKSKNCIIS
